Measurements reported in PubChem BioAssay AID1259308 (NCATS, 2017)
Assay: 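Genes whose loss raises luciferase production in HEK293 cells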 (primary screen). Cells: human HEK293 embryonic kidney cells stably expressing firefly luciferase (HEK-CMV-Luc2-Hygro). Knock-down reagent: single siRNA against human genes, 0.8 pmol siRNA per well. Duration: 72 h. Measured: 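Luciferase light (ONE-Glo) measured on one replicate plate set and viability (CellTiter-Glo) on the other, scaled to a negative control siRNA, with robust z-scores and luciferase per cell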. Reading the numbers: total luciferase, z-score: higher = more reporter protein produced. Hit rule: 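Active when the median/MAD z-score for overall luciferase is greater than 3; a gene was taken forward for validation with new siRNAs if at least two of its three siRNAs passed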. Meaning of the calls: active = raised luciferase; inactive = no rise.
The deposit covers about 59,000 reagents; below is a random part of them. About 1,510 of all reagents (2.6%) were called active. 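Calls use total luciferase alone and ignore viability, so some active siRNAs may act by altering cell number.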 Entries without a mark were called inactive. Reagents against one gene are numbered here. Further read-outs or replicates are left out here.

no.	Gene	siRNA no.	total luciferase, z-score
1	TFEC (transcription factor EC)	1	2.56
2	TFEC (transcription factor EC)	2	-0.212
3	TFEC (transcription factor EC)	3	-1.19
4	DNAL1 (dynein axonemal light chain 1)	1	-1.38
5	DNAL1 (dynein axonemal light chain 1)	2	1.56
6	DNAL1 (dynein axonemal light chain 1)	3	2.08
7	ADCYAP1 (adenylate cyclase activating polypeptide 1)	1	-0.639
8	ADCYAP1 (adenylate cyclase activating polypeptide 1)	2	1.5
9	ADCYAP1 (adenylate cyclase activating polypeptide 1)	3	1.22
10	CTF1 (cardiotrophin 1)	1	1.59
11	CTF1 (cardiotrophin 1)	2	2.5
12	CTF1 (cardiotrophin 1)	3	0.661
13	MSRB3 (methionine sulfoxide reductase B3)	1	-0.712
14	MSRB3 (methionine sulfoxide reductase B3)	2	1.13
15	MSRB3 (methionine sulfoxide reductase B3)	3	-1.62
16	RGL4 (ral guanine nucleotide dissociation stimulator like 4)	1	-0.314
17	RGL4 (ral guanine nucleotide dissociation stimulator like 4)	2	-0.37
18	RGL4 (ral guanine nucleotide dissociation stimulator like 4)	3	-1.31
19	NPTN (neuroplastin)	1	1.15
20	NPTN (neuroplastin)	2	0.481
21	NPTN (neuroplastin)	3	0.0731
22	SLC22A23	1	0.753
23	SLC22A23	2	-0.566
24	SLC22A23	3	-1.08
25	SMAD3 (SMAD family member 3)	1	3.07 (active)
26	SMAD3 (SMAD family member 3)	2	1.5
27	SMAD3 (SMAD family member 3)	3	1.4
28	AVL9 (AVL9 cell migration associated)	1	0.462
29	AVL9 (AVL9 cell migration associated)	2	-0.988
30	AVL9 (AVL9 cell migration associated)	3	0.918
31	EML1 (EMAP like 1)	1	-0.247
32	EML1 (EMAP like 1)	2	3.88 (active)
33	EML1 (EMAP like 1)	3	1.35
34	LAIR2 (leukocyte associated immunoglobulin like receptor 2)	1	-0.345
35	LAIR2 (leukocyte associated immunoglobulin like receptor 2)	2	2.25
36	LAIR2 (leukocyte associated immunoglobulin like receptor 2)	3	-0.903
37	PAM (peptidylglycine alpha-amidating monooxygenase)	1	-0.591
38	PAM (peptidylglycine alpha-amidating monooxygenase)	2	-0.892
39	PAM (peptidylglycine alpha-amidating monooxygenase)	3	0.411
40	SARM1 (sterile alpha and TIR motif containing 1)	1	0.6
41	SARM1 (sterile alpha and TIR motif containing 1)	2	-0.361
42	SARM1 (sterile alpha and TIR motif containing 1)	3	0.776
43	NRIP1 (nuclear receptor interacting protein 1)	1	-0.287
44	NRIP1 (nuclear receptor interacting protein 1)	2	0.603
45	NRIP1 (nuclear receptor interacting protein 1)	3	0.618

Copied from the listing, 12 entries:
no.	Gene	siRNA no.	total luciferase, z-score
11	CTF1 (cardiotrophin 1)	2	2.5
12	CTF1 (cardiotrophin 1)	3	0.661
13	MSRB3 (methionine sulfoxide reductase B3)	1	-0.712
14	MSRB3 (methionine sulfoxide reductase B3)	2	1.13
15	MSRB3 (methionine sulfoxide reductase B3)	3	-1.62
16	RGL4 (ral guanine nucleotide dissociation stimulator like 4)	1	-0.314
17	RGL4 (ral guanine nucleotide dissociation stimulator like 4)	2	-0.37
18	RGL4 (ral guanine nucleotide dissociation stimulator like 4)	3	-1.31
19	NPTN (neuroplastin)	1	1.15
20	NPTN (neuroplastin)	2	0.481
21	NPTN (neuroplastin)	3	0.0731
22	SLC22A23	1	0.753

Next entries follow.
no.	Gene	siRNA no.	total luciferase, z-score
46	GLYATL1P4 (glycine-N-acyltransferase like 1 pseudogene 4)	1	-0.933
47	GLYATL1P4 (glycine-N-acyltransferase like 1 pseudogene 4)	2	-0.725
48	GLYATL1P4 (glycine-N-acyltransferase like 1 pseudogene 4)	3	-1.68
49	WIPF3 (WAS/WASL interacting protein family member 3)	1	-1.29
50	WIPF3 (WAS/WASL interacting protein family member 3)	2	-0.678
51	WIPF3 (WAS/WASL interacting protein family member 3)	3	1.25
52	GALM (galactose mutarotase)	1	0.707
53	GALM (galactose mutarotase)	2	3.36 (active)
54	GALM (galactose mutarotase)	3	-1
55	CAPZA1 (capping actin protein of muscle Z-line subunit alpha 1)	1	1.27
56	CAPZA1 (capping actin protein of muscle Z-line subunit alpha 1)	2	-0.232
57	CAPZA1 (capping actin protein of muscle Z-line subunit alpha 1)	3	-0.964
58	OR2T27 (olfactory receptor family 2 subfamily T member 27)	1	-1.76
59	OR2T27 (olfactory receptor family 2 subfamily T member 27)	2	-0.564
60	OR2T27 (olfactory receptor family 2 subfamily T member 27)	3	-0.315
61	SETD4 (SET domain containing 4)	1	-0.451
62	SETD4 (SET domain containing 4)	2	0.0509
63	SETD4 (SET domain containing 4)	3	1.65
64	NCOR1 (nuclear receptor corepressor 1)	1	-0.529
65	NCOR1 (nuclear receptor corepressor 1)	2	-1.61
66	NCOR1 (nuclear receptor corepressor 1)	3	0.777
67	KRT24 (keratin 24)	1	-0.446
68	KRT24 (keratin 24)	2	2.19
69	KRT24 (keratin 24)	3	0.59
70	TNK1 (tyrosine kinase non receptor 1)	1	0.765
71	TNK1 (tyrosine kinase non receptor 1)	2	0.625
72	TNK1 (tyrosine kinase non receptor 1)	3	3.89 (active)
73	SPINK2 (serine peptidase inhibitor Kazal type 2)	1	0.318
74	SPINK2 (serine peptidase inhibitor Kazal type 2)	2	0.201
75	SPINK2 (serine peptidase inhibitor Kazal type 2)	3	0.233
